PubChem BioAssay AID504808 | Drosophila RNAi Screening Center | 2011
Screen: 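Fly genes required to hold E2F transcription in check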 (primary screen). System: Drosophila S2 cells. Knock-down reagent: long dsRNA against Drosophila genes. Detection: 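Dual luciferase plate measurements; E2F-specific signal taken as firefly over Renilla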. Scale: E2F firefly: higher = more E2F reporter activity; Renilla normaliser: higher = more normaliser reporter signal. Rule for the call: 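a knock-down counted as active when the firefly/Renilla E2F signal rose above 50%, a threshold chosen arbitrarily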.
The deposit covers about 21,000 reagents; below is an unselected part of those that have a named target and a result. Of all reagents, 18 (0.084%) got an active call. 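Raw counts without plate normalisation, one of two replicates; the ratio scores behind the calls were not deposited.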 Not given: the amount of reagent, the time to read-out.

Gene | amplicon | E2F firefly, rep 1 | Renilla normaliser, rep 1 | Call
CTCF | DRSC11004 | 72341 | 4099 | inactive
CG3349 | DRSC10359 | 1.59e5 | 6980 | inactive
CG9784 | DRSC20210 | 1.44e5 | 6131 | inactive
Mdr65 (Multi drug resistance 65) | DRSC11220 | 1.11e5 | 4604 | inactive
CG4751 | DRSC02776 | 76460 | 3466 | inactive
Obp57c (Odorant-binding protein 57c) | DRSC06384 | 1.52e5 | 5347 | inactive
CG34005 | DRSC05700 | 1.56e5 | 5896 | inactive
CG32148 | DRSC09338 | 1.42e5 | 3929 | inactive
Rsph4a (Radial spoke head protein 4a) | DRSC04338 | 79799 | 3115 | inactive
Cln7 | DRSC11005 | 71117 | 3899 | inactive
RpS19a (Ribosomal protein S19a) | DRSC20281 | 84595 | 15745 | inactive
Nup107 (Nucleoporin 107kD) | DRSC01999 | 1.32e5 | 4393 | inactive
CG3226 | DRSC18296 | 7902 | 712 | inactive
yps (ypsilon schachtel) | DRSC11411 | 1.38e5 | 6554 | inactive
Dredd (Death related ced-3/Nedd2-like caspase) | DRSC18461 | 1750 | 936 | inactive
CG5902 | DRSC15912 | 68686 | 3851 | inactive
trx (trithorax) | DRSC17089 | 69288 | 3192 | inactive
CG8219 | DRSC10971 | 1.03e5 | 4225 | inactive
Zasp67 (Z band alternatively spliced PDZ-motif protein 67) | DRSC10169 | 76024 | 2184 | inactive
Nmdar1 (NMDA receptor 1) | DRSC12071 | 72882 | 4683 | inactive
Nmdar1 (NMDA receptor 1) | DRSC12356 | 1.37e5 | 7119 | inactive
Ifrd1 (Interferon-related developmental regulator 1) | DRSC00415 | 1.47e5 | 4887 | inactive
Ifrd1 (Interferon-related developmental regulator 1) | DRSC00566 | 1.50e5 | 4945 | inactive
ebi | DRSC00816 | 79120 | 3708 | inactive
mRpS30 (mitochondrial ribosomal protein S30) | DRSC20107 | 8102 | 708 | inactive
Irbp (Inverted repeat-binding protein) | DRSC17007 | 1.58e5 | 6866 | inactive
CG13318 | DRSC14581 | 1.28e5 | 6326 | inactive
bt (bent) | DRSC17129 | 1830 | 880 | inactive
bt (bent) | DRSC17171 | 1412 | 1024 | inactive
abo (abnormal oocyte) | DRSC02926 | 1.51e5 | 5713 | inactive
Nepl9 (Neprilysin-like 9) | DRSC02255 | 1.00e5 | 4266 | inactive
CG33278 | DRSC10336 | 94397 | 4489 | inactive
CG12877 | DRSC14565 | 1.23e5 | 5999 | inactive
Rab23 | DRSC12305 | 1.42e5 | 7025 | inactive

Records listed so far whose gene name begins with R or r (3):
Gene | amplicon | E2F firefly, rep 1 | Renilla normaliser, rep 1 | Call
Rsph4a (Radial spoke head protein 4a) | DRSC04338 | 79799 | 3115 | inactive
RpS19a (Ribosomal protein S19a) | DRSC20281 | 84595 | 15745 | inactive
Rab23 | DRSC12305 | 1.42e5 | 7025 | inactive
